Common to all, as to test: log2 fold change, soluble protein after heating vs DMSO (PISA); higher = thermal stabilisation; K562 lysate, 10 uM; active = over 0.2 and 3.5 SD of the protein, either way, in both replicates (recomputed)
Compound in assay [1]: Cc1sc2c(c1C)C(c1ccc(Cl)cc1)=N[C@@H](CC(=O)OC(C)(C)C)c1nnc(C)n1-2
The gist of the method: (§1)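 Quantification was by TMTpro 16plex LC-MS/MS with equalised channel sums, applied to the supernatant after 21,000xg for 90 min. Samples were crude K562 extract at 1 mg/mL protein in PBS pH 7.4 with 1 mM MgCl2, treated with 10 μM compound for 30 min, heated for 3 min across 48°C-58°C, pooled and brought to 0.5% NP-40 at 4°C. Values are log-two fold changes in thermal stability relative to solvent controls, from duplicates.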

Sequences of proteins named here, by UniProt entry; tags and fusion partners are left off. A change or cut given only in a name is not applied to a line headed by its entry.
UniProt Q9P1W9: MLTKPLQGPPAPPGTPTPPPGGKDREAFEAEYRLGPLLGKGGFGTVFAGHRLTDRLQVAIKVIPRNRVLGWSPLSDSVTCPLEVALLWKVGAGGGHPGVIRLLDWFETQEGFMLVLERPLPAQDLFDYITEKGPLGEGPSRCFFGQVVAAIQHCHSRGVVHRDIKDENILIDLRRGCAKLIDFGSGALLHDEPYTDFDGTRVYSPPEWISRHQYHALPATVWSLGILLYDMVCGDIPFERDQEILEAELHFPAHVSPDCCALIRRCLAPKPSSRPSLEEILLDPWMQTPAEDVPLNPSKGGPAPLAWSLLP
UniProt Q9Y2B2: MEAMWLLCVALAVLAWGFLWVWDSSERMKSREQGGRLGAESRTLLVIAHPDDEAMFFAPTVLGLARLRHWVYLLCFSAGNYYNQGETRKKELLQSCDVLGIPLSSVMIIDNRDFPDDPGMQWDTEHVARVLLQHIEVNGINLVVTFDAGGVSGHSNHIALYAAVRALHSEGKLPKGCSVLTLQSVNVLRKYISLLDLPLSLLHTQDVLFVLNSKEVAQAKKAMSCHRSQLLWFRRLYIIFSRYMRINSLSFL
UniProt O60331: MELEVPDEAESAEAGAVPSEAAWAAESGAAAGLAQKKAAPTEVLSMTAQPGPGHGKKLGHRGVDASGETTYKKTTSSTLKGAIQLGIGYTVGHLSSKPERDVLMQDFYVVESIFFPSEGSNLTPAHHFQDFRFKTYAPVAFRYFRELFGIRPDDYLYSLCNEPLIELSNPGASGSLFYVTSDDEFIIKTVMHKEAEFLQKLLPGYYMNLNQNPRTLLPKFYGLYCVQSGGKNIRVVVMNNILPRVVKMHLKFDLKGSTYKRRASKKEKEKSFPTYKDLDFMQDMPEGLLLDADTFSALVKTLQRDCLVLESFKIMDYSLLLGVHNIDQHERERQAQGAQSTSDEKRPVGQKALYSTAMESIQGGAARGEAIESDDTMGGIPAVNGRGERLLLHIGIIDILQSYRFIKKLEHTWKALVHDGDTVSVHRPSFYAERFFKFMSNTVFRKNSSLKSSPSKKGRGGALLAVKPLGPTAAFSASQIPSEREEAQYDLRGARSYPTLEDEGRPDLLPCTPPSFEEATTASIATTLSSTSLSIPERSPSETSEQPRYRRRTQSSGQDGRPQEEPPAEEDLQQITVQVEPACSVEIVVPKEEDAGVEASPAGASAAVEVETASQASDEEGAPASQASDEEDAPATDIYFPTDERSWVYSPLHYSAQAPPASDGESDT
UniProt Q7Z7B1: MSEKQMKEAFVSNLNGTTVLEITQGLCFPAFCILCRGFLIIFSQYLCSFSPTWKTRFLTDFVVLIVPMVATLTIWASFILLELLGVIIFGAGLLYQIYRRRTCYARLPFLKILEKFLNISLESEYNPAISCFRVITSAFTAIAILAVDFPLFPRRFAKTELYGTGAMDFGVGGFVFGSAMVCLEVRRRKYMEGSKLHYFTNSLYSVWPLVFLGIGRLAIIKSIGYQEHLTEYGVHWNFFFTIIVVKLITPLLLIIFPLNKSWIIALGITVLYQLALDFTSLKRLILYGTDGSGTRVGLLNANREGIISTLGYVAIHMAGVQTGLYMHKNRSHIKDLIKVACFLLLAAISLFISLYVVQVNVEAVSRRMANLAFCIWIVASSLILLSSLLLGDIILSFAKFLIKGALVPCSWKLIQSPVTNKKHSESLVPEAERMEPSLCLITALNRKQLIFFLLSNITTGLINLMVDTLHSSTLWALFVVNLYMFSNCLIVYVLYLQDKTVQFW
UniProt Q14442: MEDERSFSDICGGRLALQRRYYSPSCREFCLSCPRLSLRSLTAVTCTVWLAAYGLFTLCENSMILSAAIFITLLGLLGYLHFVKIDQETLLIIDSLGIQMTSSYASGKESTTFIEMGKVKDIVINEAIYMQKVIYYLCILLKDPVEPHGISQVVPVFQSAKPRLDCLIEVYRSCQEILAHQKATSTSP
UniProt Q9HB20: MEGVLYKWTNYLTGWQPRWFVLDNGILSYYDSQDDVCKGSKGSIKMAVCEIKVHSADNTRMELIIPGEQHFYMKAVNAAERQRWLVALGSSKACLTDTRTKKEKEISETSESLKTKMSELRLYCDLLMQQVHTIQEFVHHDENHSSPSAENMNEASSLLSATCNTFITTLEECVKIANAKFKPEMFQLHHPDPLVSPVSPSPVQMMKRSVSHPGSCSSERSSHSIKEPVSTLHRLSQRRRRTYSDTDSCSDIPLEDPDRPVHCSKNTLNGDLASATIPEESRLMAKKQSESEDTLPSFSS
UniProt Q99640: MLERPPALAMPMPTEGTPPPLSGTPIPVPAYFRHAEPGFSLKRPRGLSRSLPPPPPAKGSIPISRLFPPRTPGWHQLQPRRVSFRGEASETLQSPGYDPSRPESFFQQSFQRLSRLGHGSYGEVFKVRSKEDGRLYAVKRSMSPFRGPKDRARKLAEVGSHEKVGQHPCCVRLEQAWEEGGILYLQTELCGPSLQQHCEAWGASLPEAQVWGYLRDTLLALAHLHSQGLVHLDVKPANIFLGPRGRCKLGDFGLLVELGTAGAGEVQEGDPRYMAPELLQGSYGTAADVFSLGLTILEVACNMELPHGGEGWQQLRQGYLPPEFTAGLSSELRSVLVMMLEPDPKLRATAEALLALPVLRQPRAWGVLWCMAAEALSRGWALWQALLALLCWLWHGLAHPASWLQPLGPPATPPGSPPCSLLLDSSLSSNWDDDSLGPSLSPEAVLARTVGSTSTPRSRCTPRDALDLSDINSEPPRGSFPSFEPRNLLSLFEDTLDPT
UniProt O75167: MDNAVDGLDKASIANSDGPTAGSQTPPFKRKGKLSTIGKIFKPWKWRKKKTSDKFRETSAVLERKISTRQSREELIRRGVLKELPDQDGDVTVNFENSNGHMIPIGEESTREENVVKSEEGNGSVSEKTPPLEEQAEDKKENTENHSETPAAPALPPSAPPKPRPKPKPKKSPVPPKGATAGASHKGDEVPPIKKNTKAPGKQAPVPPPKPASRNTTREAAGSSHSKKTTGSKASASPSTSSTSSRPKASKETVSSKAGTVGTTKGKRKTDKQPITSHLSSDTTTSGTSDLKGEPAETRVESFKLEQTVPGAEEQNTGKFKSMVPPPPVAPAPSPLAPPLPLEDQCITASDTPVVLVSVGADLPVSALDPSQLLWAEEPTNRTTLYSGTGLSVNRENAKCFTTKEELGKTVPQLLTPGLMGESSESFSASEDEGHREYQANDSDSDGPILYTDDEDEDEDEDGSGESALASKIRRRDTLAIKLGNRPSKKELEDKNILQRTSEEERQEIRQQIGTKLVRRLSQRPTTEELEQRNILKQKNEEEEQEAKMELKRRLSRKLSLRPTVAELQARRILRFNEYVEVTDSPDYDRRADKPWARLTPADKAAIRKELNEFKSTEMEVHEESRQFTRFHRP
UniProt Q86YI8: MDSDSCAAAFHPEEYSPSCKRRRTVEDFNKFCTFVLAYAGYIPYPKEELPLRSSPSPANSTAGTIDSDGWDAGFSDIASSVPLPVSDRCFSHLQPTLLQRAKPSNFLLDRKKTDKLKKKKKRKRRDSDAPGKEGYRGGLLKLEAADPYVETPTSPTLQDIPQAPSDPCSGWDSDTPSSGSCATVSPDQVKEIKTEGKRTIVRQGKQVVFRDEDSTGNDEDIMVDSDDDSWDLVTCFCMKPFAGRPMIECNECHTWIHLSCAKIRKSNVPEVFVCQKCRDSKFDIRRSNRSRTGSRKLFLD
UniProt P36871: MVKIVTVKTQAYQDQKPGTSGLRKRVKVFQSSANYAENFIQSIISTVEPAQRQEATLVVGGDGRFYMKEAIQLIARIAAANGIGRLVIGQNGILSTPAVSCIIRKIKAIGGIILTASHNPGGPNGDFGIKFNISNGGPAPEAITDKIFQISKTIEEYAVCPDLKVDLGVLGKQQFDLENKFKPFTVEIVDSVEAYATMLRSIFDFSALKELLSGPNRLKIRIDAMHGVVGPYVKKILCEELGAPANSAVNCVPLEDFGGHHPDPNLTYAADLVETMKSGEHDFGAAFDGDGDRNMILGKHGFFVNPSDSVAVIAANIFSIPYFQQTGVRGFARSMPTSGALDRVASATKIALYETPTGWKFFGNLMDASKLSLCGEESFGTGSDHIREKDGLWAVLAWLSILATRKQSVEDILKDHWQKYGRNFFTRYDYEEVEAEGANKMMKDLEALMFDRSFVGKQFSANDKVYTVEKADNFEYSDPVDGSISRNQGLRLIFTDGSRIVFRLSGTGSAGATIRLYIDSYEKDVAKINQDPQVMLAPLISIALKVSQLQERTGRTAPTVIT
UniProt Q8N4B1: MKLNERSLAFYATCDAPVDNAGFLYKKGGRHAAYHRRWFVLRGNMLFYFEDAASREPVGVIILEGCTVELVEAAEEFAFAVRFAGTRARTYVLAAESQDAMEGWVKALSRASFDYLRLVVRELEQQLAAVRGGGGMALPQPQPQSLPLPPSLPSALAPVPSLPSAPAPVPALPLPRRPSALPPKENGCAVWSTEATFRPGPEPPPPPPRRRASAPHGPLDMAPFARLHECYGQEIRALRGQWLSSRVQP
UniProt Q96JA3: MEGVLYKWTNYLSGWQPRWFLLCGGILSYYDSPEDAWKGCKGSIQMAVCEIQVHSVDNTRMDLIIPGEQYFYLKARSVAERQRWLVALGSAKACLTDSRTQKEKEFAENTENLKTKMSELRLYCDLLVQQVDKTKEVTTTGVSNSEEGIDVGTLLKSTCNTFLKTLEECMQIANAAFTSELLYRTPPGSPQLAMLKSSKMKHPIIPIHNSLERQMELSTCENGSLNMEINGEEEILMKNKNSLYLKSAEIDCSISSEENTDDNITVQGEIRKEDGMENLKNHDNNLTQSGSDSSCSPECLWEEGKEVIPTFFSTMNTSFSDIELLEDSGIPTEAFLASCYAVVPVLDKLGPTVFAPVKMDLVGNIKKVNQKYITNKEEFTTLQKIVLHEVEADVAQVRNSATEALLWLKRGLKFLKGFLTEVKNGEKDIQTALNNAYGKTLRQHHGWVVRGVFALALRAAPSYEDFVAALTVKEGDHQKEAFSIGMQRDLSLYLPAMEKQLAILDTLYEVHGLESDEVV
UniProt O75928, whole entry, looked up: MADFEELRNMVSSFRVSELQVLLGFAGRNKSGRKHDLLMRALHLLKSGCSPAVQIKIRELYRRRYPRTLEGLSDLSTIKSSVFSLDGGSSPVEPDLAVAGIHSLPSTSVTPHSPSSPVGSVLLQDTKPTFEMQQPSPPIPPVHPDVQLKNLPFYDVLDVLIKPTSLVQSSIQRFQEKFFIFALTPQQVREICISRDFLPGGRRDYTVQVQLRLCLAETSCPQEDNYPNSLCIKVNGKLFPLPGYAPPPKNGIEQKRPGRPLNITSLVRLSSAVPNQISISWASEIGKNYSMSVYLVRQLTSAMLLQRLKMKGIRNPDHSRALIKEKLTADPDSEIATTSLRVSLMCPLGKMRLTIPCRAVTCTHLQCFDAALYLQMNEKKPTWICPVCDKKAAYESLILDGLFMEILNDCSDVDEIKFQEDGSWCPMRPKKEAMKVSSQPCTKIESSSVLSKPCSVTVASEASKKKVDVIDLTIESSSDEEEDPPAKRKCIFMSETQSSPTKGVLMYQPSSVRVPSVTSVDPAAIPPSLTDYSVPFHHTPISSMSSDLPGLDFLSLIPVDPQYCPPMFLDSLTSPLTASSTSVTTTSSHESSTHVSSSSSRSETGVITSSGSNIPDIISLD
UniProt Q6ZUJ8: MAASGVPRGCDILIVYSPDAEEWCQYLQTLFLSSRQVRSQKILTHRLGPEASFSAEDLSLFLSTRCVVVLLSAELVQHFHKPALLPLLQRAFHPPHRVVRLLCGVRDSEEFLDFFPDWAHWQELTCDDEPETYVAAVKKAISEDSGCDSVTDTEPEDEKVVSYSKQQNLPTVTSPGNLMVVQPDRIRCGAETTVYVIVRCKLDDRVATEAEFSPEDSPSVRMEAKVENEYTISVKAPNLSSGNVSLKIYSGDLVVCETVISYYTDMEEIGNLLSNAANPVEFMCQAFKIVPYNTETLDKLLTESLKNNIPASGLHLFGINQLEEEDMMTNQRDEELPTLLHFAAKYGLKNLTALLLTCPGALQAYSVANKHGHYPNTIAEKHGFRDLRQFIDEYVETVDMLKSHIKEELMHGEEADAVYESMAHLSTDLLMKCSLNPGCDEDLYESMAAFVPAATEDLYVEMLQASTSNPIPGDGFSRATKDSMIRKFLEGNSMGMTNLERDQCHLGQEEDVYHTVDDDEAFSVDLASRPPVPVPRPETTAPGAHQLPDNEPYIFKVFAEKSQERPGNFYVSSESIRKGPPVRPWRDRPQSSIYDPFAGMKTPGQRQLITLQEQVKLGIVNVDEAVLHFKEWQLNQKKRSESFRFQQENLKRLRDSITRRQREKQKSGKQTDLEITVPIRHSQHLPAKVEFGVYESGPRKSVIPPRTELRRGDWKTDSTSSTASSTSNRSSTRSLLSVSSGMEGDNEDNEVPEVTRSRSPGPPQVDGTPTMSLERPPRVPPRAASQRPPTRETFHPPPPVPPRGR

Compound in assay [2]: c1ccc([C@@H]2C[C@H]2NC2CCNCC2)cc1
The gist of the method:
as §1

Compound in assay [3]: C1=CC=C(C=C1)[C@H](COC2=CC3=C(C=C2)NC(=O)N3)NC(=O)C4=CC=CN(C4=O)CC5=CC(=C(C=C5)F)F
The gist of the method: as §1

Compound in assay [4]: CC1=C(SC2=C1C(=N[C@H](C3=NN=C(N32)C)CC(=O)N)C4=CC=C(C=C4)Cl)C
In short, it runs like this: as §1

Compound in assay [5]: CC1=C2C(=CC=C1)N=C(N(C2=O)C3=CC=CC=C3C)CN4C=NC5=C(N=CN=C54)N
In short, it runs like this:
as §1

This is one part of the list.

Regarding PIM2 (UniProt Q9P1W9), the log2 fold change in assay [1] is inactive: -0.089; in assay [2] it was inactive: -0.092.

Turning to PIGL (UniProt Q9Y2B2), the values for the log2 fold change in assay [3], in assay [4] and in assay [1] were inactive: 0.024, inactive: 0.155 and inactive: -0.009, respectively.

On to PLAU (UniProt P00749), for which the log2 fold change in assay [1] was inactive: -0.177.

Take PIP5K1C isoform 3 (UniProt O60331): the log2 fold change is inactive: -0.031 in assay [3], inactive: 0.07 in assay [4] and inactive: 0.045 in assay [1].

As for PIGW (UniProt Q7Z7B1), the log2 fold change is inactive: 0.144 in assay [5] and inactive: -0.021 in assay [1].

On to PIGH (UniProt Q14442), for which the log2 fold change was inactive: 0.02 in assay [3], inactive: -0.045 in assay [4], inactive: 0.042 in assay [5] and inactive: -0.109 in assay [2].

Regarding PIK3C2A (UniProt O00443), the results for the log2 fold change in assay [3], in assay [4] and in assay [1] were inactive: 0.018, inactive: -0.031 and inactive: 0.003, respectively.

Turning to PLEKHA3 (UniProt Q9HB20), the log2 fold change is inactive: 0.022 in assay [1] and inactive: -0.305 in assay [2].

Consider PKMYT1 (UniProt Q99640), for which the log2 fold change was inactive: 0.028 in assay [5], inactive: -0.037 in assay [1] and inactive: 0.025 in assay [2].

As for PHACTR2 isoform 4 (UniProt O75167), the log2 fold change in assay [3] was inactive: 0.025; in assay [4] it was inactive: 0.035; in assay [1], inactive: 0.036; in assay [2], inactive: -0.083.

With PHF13 (UniProt Q86YI8), the log2 fold change in assay [3] is inactive: 0.098; in assay [4], inactive: -0.007; in assay [2], inactive: -0.357.

With PGM1 isoform 2 (UniProt P36871), the log2 fold change in assay [1] was inactive: -0.095.

Regarding PHETA1 isoform 4 (UniProt Q8N4B1), in assay [2], the log2 fold change was inactive: -0.012.

With PIDD1 (UniProt Q9HB75), the log2 fold change in assay [1] is inactive: 0.093.

In the case of PLEKHA8 (UniProt Q96JA3), the log2 fold change in assay [1] was inactive: -0.14.

As for PIAS2 (UniProt O75928), the log2 fold change in assay [5] was inactive: 0.001; in assay [1] it was inactive: 0.046.

Consider PIK3AP1 (UniProt Q6ZUJ8), for which the log2 fold change is inactive: -0.086 in assay [3], inactive: 0.069 in assay [4] and inactive: 0.173 in assay [1].

(Values after the supplement of paper PMC10849652.)
